The target of test [1] is Flot-1-STOP328, deletion mutant of flot-1 missing 100 amino acids from the C-terminal end (rat) (UniProt Q9Z1E1). In words: two-hybrid; pairwise cotransformation of bait and prey in yeast AH109 (Matchmaker GAL4 Two-Hybrid System 3); growth of blue colonies on SD/-Ade/-His/-Leu/-Trp/X-α-gal plates, photographed after 3 days.
The target of test [2] is T1, Full-length (FL) flotillin-1/reggie-2, two-hybrid bait in pGBKT7 (rat) (UniProt Q9Z1E1).
T1 sequence: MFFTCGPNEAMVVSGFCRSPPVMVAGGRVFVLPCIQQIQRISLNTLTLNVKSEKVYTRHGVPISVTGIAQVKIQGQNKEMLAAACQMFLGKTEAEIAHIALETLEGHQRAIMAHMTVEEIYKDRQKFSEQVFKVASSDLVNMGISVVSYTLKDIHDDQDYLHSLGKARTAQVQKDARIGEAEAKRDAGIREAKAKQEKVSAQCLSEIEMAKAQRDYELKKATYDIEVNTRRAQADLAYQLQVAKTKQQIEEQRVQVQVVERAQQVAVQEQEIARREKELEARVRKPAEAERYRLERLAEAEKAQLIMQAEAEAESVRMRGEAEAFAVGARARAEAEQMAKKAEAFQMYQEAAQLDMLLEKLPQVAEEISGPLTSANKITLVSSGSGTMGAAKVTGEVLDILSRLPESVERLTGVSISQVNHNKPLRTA
The description is as above.

Test [3] addresses T2, flotillin-2/reggie-1, two-hybrid fusion (UniProt Q9Z2S9).
T2 sequence: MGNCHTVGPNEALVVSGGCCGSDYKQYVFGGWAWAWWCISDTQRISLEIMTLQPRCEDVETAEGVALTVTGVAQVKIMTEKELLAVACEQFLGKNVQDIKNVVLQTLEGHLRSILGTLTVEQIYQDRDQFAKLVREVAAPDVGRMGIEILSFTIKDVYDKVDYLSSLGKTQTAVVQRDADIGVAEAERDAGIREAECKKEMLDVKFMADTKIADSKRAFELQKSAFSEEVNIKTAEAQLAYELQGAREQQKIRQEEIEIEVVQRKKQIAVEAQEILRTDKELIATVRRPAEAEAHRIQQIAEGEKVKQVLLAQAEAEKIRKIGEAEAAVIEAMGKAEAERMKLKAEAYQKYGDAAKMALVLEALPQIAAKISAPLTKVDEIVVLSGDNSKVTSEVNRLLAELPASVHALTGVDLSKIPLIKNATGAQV
The test is described as above.

The target of test [4] is T3, FL FRS2 GST fusion (UniProt Q8WU20).
T3 sequence: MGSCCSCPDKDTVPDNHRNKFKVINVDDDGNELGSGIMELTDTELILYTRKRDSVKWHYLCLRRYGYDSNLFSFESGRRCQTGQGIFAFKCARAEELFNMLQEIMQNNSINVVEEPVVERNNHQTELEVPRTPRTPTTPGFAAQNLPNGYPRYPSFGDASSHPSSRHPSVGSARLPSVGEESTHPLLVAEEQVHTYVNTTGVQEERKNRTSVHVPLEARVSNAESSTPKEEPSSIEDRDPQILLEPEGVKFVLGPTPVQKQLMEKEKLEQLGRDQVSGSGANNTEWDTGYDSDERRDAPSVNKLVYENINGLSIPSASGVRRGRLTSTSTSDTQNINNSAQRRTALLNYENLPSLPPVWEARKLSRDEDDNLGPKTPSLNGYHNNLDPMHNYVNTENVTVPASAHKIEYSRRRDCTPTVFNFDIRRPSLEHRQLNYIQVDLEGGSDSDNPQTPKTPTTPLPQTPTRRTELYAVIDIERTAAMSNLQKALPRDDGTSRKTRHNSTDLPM
Kind of test: pull-down; competition: purified FRS2-GST on beads, lysates of HeLa cells transfected with increasing amounts of FGFR-myc (0.5-2 µg DNA; empty pcDNA3 as control); blot for endogenous flot-1; only the target purified.

Test [5] addresses FL Cbl-associated protein/ponsin, two-hybrid fusion (mouse). Kind of test: two-hybrid; pairwise cotransformation of bait and prey in yeast AH109 (Matchmaker GAL4 Two-Hybrid System 3); growth of blue colonies on SD/-Ade/-His/-Leu/-Trp/X-α-gal plates, photographed after 3 days.
Test [6] concerns the target Flot-1-STOP328, deletion mutant of flot-1 missing 100 amino acids from the C-terminal end (rat) (UniProt Q9Z1E1). The description is as above. The source holds these as a separate data set.
For test [7], the target named is sorbin homology (SoHo) domain of CAP, two-hybrid fusion SoHo-BD (mouse). The description is as above.
Test [8] concerns the target CAP mutant lacking the SoHo domain, GST fusion (mouse). In words: pull-down; GST fusion immobilised on sepharose beads, purified FRS2-His in solution; 5 µg of the purified proteins, on ice 3 h; wash 50 mM Tris-HCl pH 7.5, 150 mM NaCl, 1 mM EDTA, 1 mM DTT, 0.01% Triton X-100; anti-His blot; both purified.
Test [9] addresses SoHo-GST (sorbin homology domain of CAP) (mouse). The description is as above.
Test [10] concerns the target first SH3 domain of CAP, GST fusion (mouse). Described as above.
Test [11] addresses full length CAP-GST (mouse). The test is described as above.
The target in test [12] is second SH3 domain of CAP, GST fusion (mouse). The description is as above.
In test [13] the target is third SH3 domain of CAP (SH3C), GST fusion (mouse). Described as above.
The target of test [14] is full length CAP-GST (mouse). In words: pull-down; competition: CAP-GST on sepharose, HeLa cell lysates in the presence of increasing amounts (1-5 µg) of purified FRS2-His; blot for endogenous flot-1; only the target purified.
The target in test [15] is FRS2 CT domain GST fusion (UniProt Q8WU20). Kind of test: pull-down; GST-FRS2 fusions immobilised on glutathione-sepharose beads, incubated with HeLa cell lysate (50 mM Tris pH 7.4, 0.15 M NaCl, 2 mM EDTA, 1% NP-40) over night at 4°C; blot for endogenous flot-1; only the target purified.
The target in test [16] is FRS2 PTB domain GST fusion (UniProt Q8WU20). The test is described as above.

Where two headings read alike, the source gives them in different places. These are yes or no findings as the source states them, for the method shown. For some of these results: A result given as binding can be weak or reduced; the word gives no strength. For some of these results: Where a sequence is shown, tags or fusion partners need not be part of it. For some of these results: Binding seen in cells or lysates may run through a third protein.

For “PTB domain of FRS2 in pGADT7 (from UniProt Q8WU20) (domain or fragment)”, the binding entry is listed as “no binding” in test [1], “binds” in test [2] and “no binding” in test [3].
On to myc-tagged FGF receptor, for which the binding result in test [4] was “binds”.

B1: Full-length (FL) fibroblast growth factor receptor substrate 2 in pGADT7 (protein, UniProt Q8WU20 1-508)
chain: MGSCCSCPDKDTVPDNHRNKFKVINVDDDGNELGSGIMELTDTELILYTRKRDSVKWHYLCLRRYGYDSNLFSFESGRRCQTGQGIFAFKCARAEELFNMLQEIMQNNSINVVEEPVVERNNHQTELEVPRTPRTPTTPGFAAQNLPNGYPRYPSFGDASSHPSSRHPSVGSARLPSVGEESTHPLLVAEEQVHTYVNTTGVQEERKNRTSVHVPLEARVSNAESSTPKEEPSSIEDRDPQILLEPEGVKFVLGPTPVQKQLMEKEKLEQLGRDQVSGSGANNTEWDTGYDSDERRDAPSVNKLVYENINGLSIPSASGVRRGRLTSTSTSDTQNINNSAQRRTALLNYENLPSLPPVWEARKLSRDEDDNLGPKTPSLNGYHNNLDPMHNYVNTENVTVPASAHKIEYSRRRDCTPTVFNFDIRRPSLEHRQLNYIQVDLEGGSDSDNPQTPKTPTTPLPQTPTRRTELYAVIDIERTAAMSNLQKALPRDDGTSRKTRHNSTDLPM
For the molecule B1, the binding entry in test [5] is recorded as “binds”; in test [6] it was “no binding”; in test [7] it was “no binding”.

B2: FRS2-His (protein)
chain: MGSCCSCPDKDTVPDNHRNKFKVINVDDDGNELGSGIMELTDTELILYTRKRDSVKWHYLCLRRYGYDSNLFSFESGRRCQTGQGIFAFKCARAEELFNMLQEIMQNNSINVVEEPVVERNNHQTELEVPRTPRTPTTPGFAAQNLPNGYPRYPSFGDASSHPSSRHPSVGSARLPSVGEESTHPLLVAEEQVHTYVNTTGVQEERKNRTSVHVPLEARVSNAESSTPKEEPSSIEDRDPQILLEPEGVKFVLGPTPVQKQLMEKEKLEQLGRDQVSGSGANNTEWDTGYDSDERRDAPSVNKLVYENINGLSIPSASGVRRGRLTSTSTSDTQNINNSAQRRTALLNYENLPSLPPVWEARKLSRDEDDNLGPKTPSLNGYHNNLDPMHNYVNTENVTVPASAHKIEYSRRRDCTPTVFNFDIRRPSLEHRQLNYIQVDLEGGSDSDNPQTPKTPTTPLPQTPTRRTELYAVIDIERTAAMSNLQKALPRDDGTSRKTRHNSTDLPM
Regarding B2, the binding result in test [8] is “binds”; in test [9], “binds”; in [10], “no binding”; in [11], “binds”; in test [12], “no binding”; in [13] it was “binds”.

B3: endogenous flotillin-1 from HeLa cell lysates (protein, UniProt O75955 1-427)
chain: MFFTCGPNEAMVVSGFCRSPPVMVAGGRVFVLPCIQQIQRISLNTLTLNVKSEKVYTRHGVPISVTGIAQVKIQGQNKEMLAAACQMFLGKTEAEIAHIALETLEGHQRAIMAHMTVEEIYKDRQKFSEQVFKVASSDLVNMGISVVSYTLKDIHDDQDYLHSLGKARTAQVQKDARIGEAEAKRDAGIREAKAKQEKVSAQYLSEIEMAKAQRDYELKKAAYDIEVNTRRAQADLAYQLQVAKTKQQIEEQRVQVQVVERAQQVAVQEQEIARREKELEARVRKPAEAERYKLERLAEAEKSQLIMQAEAEAASVRMRGEAEAFAIGARARAEAEQMAKKAEAFQLYQEAAQLDMLLEKLPQVAEEISGPLTSANKITLVSSGSGTMGAAKVTGEVLDILTRLPESVERLTGVSISQVNHKPLRTA
On to B3, for which the binding result in test [14], in test [15] and in test [16] was “binds” in each case.

For the origin of these results see PMC3250484, “Molecular Networks in FGF Signaling: Flotillin-1 and Cbl-Associated Protein Compete for the Binding to Fibroblast Growth Factor Receptor Substrate 2” (PLoS ONE, 2012).
